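Each compound is printed as two spots on a slide made to bind it covalently, so it has no test concentration; the read-out is fluorescence of the bound, labelled oligonucleotide. For the PreQ1, TPP and SAM-II riboswitches the laboratory earlier reported (doi:10.1038/s41467-019-09493-3) 1 µM RNA, 2 h, and a rule that included a mean Z-score above 3 (spot signal-to-noise against the whole library), a score well above that on a control array, and duplicate spots agreeing (coefficient of variation under 100). The data file gives only the calls; its cut-offs may differ, and compounds hitting several targets are kept. A missing hit is not proof of no binding, and a hit is not a measured affinity.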 Key: hit = hit, no hit = tested without a hit. Compounds were drawn at random from those tested, without regard to their results. A dash means that no call is listed here.

Oligonucleotides screened, 5′ to 3′:
T1: TPP riboswitch RNA three-way junction, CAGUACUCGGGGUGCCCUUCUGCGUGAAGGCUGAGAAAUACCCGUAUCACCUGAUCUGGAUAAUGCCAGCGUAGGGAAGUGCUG. Hit rate about 0.7% of about 24,000 compounds.
T2: PreQ1 riboswitch RNA pseudoknot, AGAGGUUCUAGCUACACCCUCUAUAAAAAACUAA. From B. subtilis. Hit rate about 0.7% of about 24,000 compounds.
T3: SAM-II riboswitch RNA pseudoknot, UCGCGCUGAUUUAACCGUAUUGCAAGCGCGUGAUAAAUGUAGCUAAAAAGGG. Hit rate about 1% of about 21,000 compounds.

| # | SMILES | T1 | T2 | T3 |
|---|---|---|---|---|
| 1 | `Cc1c(C2CCOC(C)(C)C2)nc(N)c(C#N)c1-c1cccc(O)c1` (stereo not shown) | no hit | no hit | no hit |
| 2 | `CCCc1n(CC(O)COC2CCCCC2)c2ccccc2[n+]1C` (stereo not shown) | no hit | no hit | no hit |
| 3 | `Cc1ccc(Cn2c(NCc3ccccc3)nc3c2c(=O)n(C)c(=O)n3C)cc1` | no hit | no hit | no hit |
| 4 | `CC(C)[C@@H](NC(=O)c1cnn2cc(CCO)cnc12)C(F)(F)F` | no hit | no hit | no hit |
| 5 | `Nc1nc(CCC(=O)N2CCN(Cc3ccc4c(c3)OCO4)CC2)cs1` | no hit | no hit | no hit |
| 6 | `O=C(NCCc1ccncc1)[C@H]1CNC[C@@H](C(=O)N2CCOCC2)C1` | no hit | no hit | no hit |
| 7 | `O=C(c1cccc(CO)c1)N1CCC(N2CCc3ccccc3C2)CC1` | no hit | no hit | no hit |
| 8 | `Nc1c(-c2ccccc2)c(-c2ccccc2)nn1Cc1ccccc1` | no hit | no hit | no hit |
| 9 | `Cc1ccc(Nc2cc(N3CCCCC3)ncn2)cc1C` | no hit | no hit | no hit |
| 10 | `Cn1c(-c2ccc(F)cc2)cnc1NCc1ccc(Cl)cc1` | no hit | no hit | no hit |
| 11 | `CCC(=Cc1ccc(CC)cn1)CC` | no hit | no hit | no hit |
| 12 | `Nc1[nH]nc(C(=O)N2C[C@H](CO)C[C@H](CN3CCOCC3)C2)c1Cl` | no hit | no hit | no hit |
| 13 | `CCCOc1ccc(C2c3c(-c4c(C)cc(C)cc4O)n[nH]c3C(=O)N2CCO)cc1` (stereo not shown) | no hit | no hit | - |
| 14 | `OC(c1cccc(OCc2ccccc2)c1)c1cccs1` (stereo not shown) | no hit | no hit | no hit |
| 15 | `CCC(O)c1nc2ccccc2n1CCOc1ccccc1C` (stereo not shown) | no hit | no hit | - |
| 16 | `CCOc1ccccc1Nc1nc(-c2sc(C)nc2C)cs1` | no hit | no hit | no hit |
| 17 | `CCCOC(C)Cn1cnc(-c2ccccc2)c1-c1cccc(OCCO)c1` (stereo not shown) | no hit | no hit | no hit |
| 18 | `CCOCCOc1ccccc1NC(=O)N1C[C@@H](CO)[C@H](CO)C1` | no hit | no hit | no hit |
| 19 | `O=C(CSC1CCc2ccccc2NC1=O)Nc1ccc(CCO)cc1` (stereo not shown) | no hit | no hit | - |
| 20 | `CN1CCc2c(sc3c2C(=O)NC(c2ccc(-c4ccccc4[N+](=O)[O-])o2)N3)C1` (stereo not shown) | no hit | no hit | no hit |
| 21 | `Cc1c(Cl)cccc1NCCC(=O)c1ccc(Br)cc1` | no hit | no hit | no hit |
| 22 | `OCCCc1nc2n(n1)C(c1cccc(Br)c1)C=C(c1ccc(F)cc1)N2` (stereo not shown) | no hit | no hit | no hit |
| 23 | `OCCCN1CCOC(c2ccc(F)cc2)C1` (stereo not shown) | no hit | no hit | no hit |
| 24 | `Cc1ccc(NC(=O)[C@@H]2CNC[C@H](C(=O)NCc3cc(C4CC4)[nH]n3)C2)cc1` | no hit | no hit | no hit |
| 25 | `Cc1ccc(N(CC(O)CN2CCOCC2)S(=O)(=O)c2ccc(C)cc2)cc1` (stereo not shown) | no hit | no hit | no hit |
| 26 | `Cc1cnc(N)nc1NCC1CCC(c2nc3ccccc3[nH]2)CC1` (stereo not shown) | no hit | no hit | no hit |
| 27 | `Nc1ccc2nc(SCC(=O)c3ccc(F)cc3)sc2c1` | no hit | no hit | no hit |
| 28 | `CNc1nc(Oc2ccc(C(=O)OC)cc2)nc(SC)n1` | no hit | no hit | no hit |
| 29 | `CN1CCC(Cc2nc(COCc3ccccc3)n(CCO)n2)CC1` | no hit | no hit | no hit |
| 30 | `O=C(Cn1cc2ccccc2n1)N1CCN(Cc2ccccc2)CC(O)C1` (stereo not shown) | no hit | no hit | no hit |
| 31 | `CCCCn1ccnc1C1CCN(C(=O)[C@@H](N)Cc2c[nH]cn2)CC1` | no hit | no hit | no hit |
| 32 | `CCCCNc1nc2c(c(=O)n(C)c(=O)n2C)n1CC` | no hit | no hit | no hit |
| 33 | `Cc1nc(C2=C(N)N(c3cccc(Cl)c3)CC2=O)sc1C` | no hit | no hit | - |
| 34 | `COc1ccccc1CNCc1ccc(C(=O)O)s1` | no hit | no hit | - |
| 35 | `COc1ccc(CCNc2cc(-c3ccccc3)ncn2)cc1OC` | no hit | no hit | - |
| 36 | `Nc1nnc(SCC(=O)c2ccc(-c3ccccc3)cc2)s1` | no hit | no hit | no hit |
| 37 | `Cc1ccc2c(CNCCc3ccco3)c(C(=O)O)n(Cc3ccccc3)c2c1` | no hit | no hit | - |
| 38 | `CCc1ccccc1NC(=O)c1nnn(CC(=O)Nc2c(C)cc(C)cc2C)c1N` | no hit | no hit | no hit |
| 39 | `CCOC(=O)c1cnc2ccc(Cl)cc2c1Nc1ccccc1` | no hit | no hit | no hit |
| 40 | `C=CCc1cc(CNC(CC)c2ccnn2C)ccc1OCC` (stereo not shown) | no hit | no hit | no hit |
| 41 | `Cc1nc2ccccc2n1CC(O)COc1ccc(C(C)(C)C)cc1` (stereo not shown) | no hit | no hit | no hit |
| 42 | `COc1ccc(OC)c(-n2nnc(C(=O)NCc3ccco3)c2N)c1` | no hit | no hit | no hit |
| 43 | `CCN(CC)c1ccc(Nc2cc(C)nc3ncnn23)c(C)c1` | no hit | no hit | no hit |
| 44 | `Nc1cc(-c2cccc(F)c2)nn1S(=O)(=O)c1ccccc1` | no hit | no hit | no hit |
| 45 | `Cc1cc(C)c(-c2c(NC3CCN(Cc4ccccc4)CC3)c(=O)c2=O)cc1C` | no hit | no hit | - |
| 46 | `CSC(C)(C)CC(C)NCc1ccc2c(c1)n(C)c(=O)n2C` (stereo not shown) | no hit | no hit | no hit |
| 47 | `CC(C)Oc1ccccc1Nc1ncnc2ccccc12` | no hit | no hit | no hit |
| 48 | `O=S1(=O)N=C(Nc2cccc(C(F)(F)F)c2)c2ccccc21` | no hit | no hit | no hit |
| 49 | `CNc1nc(N2CCN(Cc3ccsc3)C(CCO)C2)nc2c1CCC2` (stereo not shown) | no hit | no hit | no hit |
| 50 | `CC(=O)c1cccc(Nc2nc(-c3ccccc3)nc3ccccc23)c1` | no hit | no hit | no hit |

The first 3 entries again:

SMILES,T1,T2,T3
Cc1c(C2CCOC(C)(C)C2)nc(N)c(C#N)c1-c1cccc(O)c1 (stereo not shown),no hit,no hit,no hit
CCCc1n(CC(O)COC2CCCCC2)c2ccccc2[n+]1C (stereo not shown),no hit,no hit,no hit
Cc1ccc(Cn2c(NCc3ccccc3)nc3c2c(=O)n(C)c(=O)n3C)cc1,no hit,no hit,no hit

Source: the ROBIN nucleic acid binder screens (doi:10.1002/anie.202211358).